# Data taken from paper PMC7819943, “Rice protein-binding microarrays: a tool to detect cis-acting elements near promoter regions in rice”.
# Protein sequences, listed by entry. Tags and fused reporters are not part of them.
# UniProt Q0JBA9, entry or part of it: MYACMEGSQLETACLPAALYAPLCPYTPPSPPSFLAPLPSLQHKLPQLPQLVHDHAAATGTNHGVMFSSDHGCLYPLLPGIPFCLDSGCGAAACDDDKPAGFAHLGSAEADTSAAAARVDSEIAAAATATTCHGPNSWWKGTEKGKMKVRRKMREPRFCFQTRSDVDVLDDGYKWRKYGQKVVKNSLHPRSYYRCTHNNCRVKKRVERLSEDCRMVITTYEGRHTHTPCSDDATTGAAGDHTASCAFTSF
# Some of the results follow.
# Target: OsWRKY34 (Oryza sativa, UniProt Q0JBA9 1-250)
# Experiment: protein-binding microarray (RPBM); PBS, 2% BSA, 51.3 ng/ul salmon testes DNA, 50 uM zinc acetate, 200 nM TF, 25 C, 1 h; high values mean tight binding
# Details: protein: recombinant; tags: N-terminal polyhistidine and DsRed monomer fusion (pET32a); label: CyDye5-dUTP incorporated in the synthesized complementary strand; 3' TTTTT single-stranded linker to array surface; dsDNA, one strand shown
# Outline: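 For the binding signal, per-feature fluorescence intensity was read in arbitrary units on an Axon 4000B scanner. Before scanning, a 2% BSA-blocked custom Agilent array made double-stranded with Cy5-dUTP was washed after 1 h at 25 °C with 200 nM protein and 50 µM zinc acetate. The proteins were Ni–NTA-purified transcription factors with N-terminal polyhistidine and DsRed fusions, expressed in E. coli BL21-CodonPlus.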
row,Sequence,binding signal
1,ACGCACAGACATGTTTTTTCCAGCATCCGTTTGGCTCGTTCGGAGTCACCTAGTGCAG,11000 fluorescence intensity (a.u.)
2,GAGCTCACACCTCGATCCTCGTCCTCTTCTTCGATTCCTCCGGAGTCACCTAGTGCAG,8340 fluorescence intensity (a.u.)
3,AAACCTAGTAGCTCATATGCTCATCTCTGCCTCTAGATTTCGGAGTCACCTAGTGCAG,10700 fluorescence intensity (a.u.)
4,ACTTGTGGGGTTGTTTTGGTCACAGTATTACTTAAATAAACGGAGTCACCTAGTGCAG,8670 fluorescence intensity (a.u.)
5,ATATAAACTTGTTCATTCTTGTAGCCCGTCCTTGTTCTCCCGGAGTCACCTAGTGCAG,9570 fluorescence intensity (a.u.)
6,AGGTTTTTTTTCATCAAAGTGAACCGGCCCTATATTATCCCGGAGTCACCTAGTGCAG,8520 fluorescence intensity (a.u.)
7,CTCTCCACTACTTCGTCTCCACCACCAGAGCATCTAATTTCGGAGTCACCTAGTGCAG,11300 fluorescence intensity (a.u.)
8,GATGAAGCTATTAATAGCTTTTAGCTTGTTGTGTGCTGTTCGGAGTCACCTAGTGCAG,8580 fluorescence intensity (a.u.)
9,CCCCTTTGTGCTCACATGTGCATTGCATATATGCAGCCTTCGGAGTCACCTAGTGCAG,8600 fluorescence intensity (a.u.)
10,TAATTTTTGACCACTCGTCTTATTTAAATTTTTTTACAAACGGAGTCACCTAGTGCAG,8080 fluorescence intensity (a.u.)
11,CCACATGCACCGGCTCTGACAAATTGCAAAAGCATCCTCTCGGAGTCACCTAGTGCAG,10100 fluorescence intensity (a.u.)
12,CGGCGGAATTCATTTTCTTGTGGTCCTTTTGCTGATCTTCCGGAGTCACCTAGTGCAG,8540 fluorescence intensity (a.u.)
13,GAGCAGAATTAACCTTTTTCTTTTTGTTTTTGTTTGCCTTCGGAGTCACCTAGTGCAG,9620 fluorescence intensity (a.u.)
14,TAAATGTGCTTTAGGTATTCCATGTCAAATCCCGTGTTTTCGGAGTCACCTAGTGCAG,8390 fluorescence intensity (a.u.)
15,CTTTCTTTAGTTAACTCATGCTCTTTATTTTGGGTTCTGTCGGAGTCACCTAGTGCAG,9620 fluorescence intensity (a.u.)
16,TTCTGCTGATTACTCTTTTTGTACTCTTTAGTTTGTTACTCGGAGTCACCTAGTGCAG,10500 fluorescence intensity (a.u.)
17,GTAGATGTAGTAGCTAGCTTTTGTTAATTTCAACGTTCCACGGAGTCACCTAGTGCAG,8380 fluorescence intensity (a.u.)
18,ATTGCTTCTGAAAACCTGCTCCTCTTTTGCTGTGGACAATCGGAGTCACCTAGTGCAG,8240 fluorescence intensity (a.u.)
19,GTGTTGTATGTGCCTAGCTAGCTATGTATGCCGTACGTACCGGAGTCACCTAGTGCAG,10300 fluorescence intensity (a.u.)
20,GACCGGCCATCCGCACTACCCACCGCTGTCGCTGGAACTTCGGAGTCACCTAGTGCAG,10700 fluorescence intensity (a.u.)
21,CTCCTTAATTTACTTATTTGTCTTTAATTGGTTCTCGCACCGGAGTCACCTAGTGCAG,9130 fluorescence intensity (a.u.)

# Single entries from the list:
# binding signal with GAGCAGAATTAACCTTTTTCTTTTTGTTTTTGTTTGCCTTCGGAGTCACCTAGTGCAG is entered as 9620 fluorescence intensity (a.u.)
# binding signal with GTAGATGTAGTAGCTAGCTTTTGTTAATTTCAACGTTCCACGGAGTCACCTAGTGCAG is entered as 8380 fluorescence intensity (a.u.)

# The results go on:

row,Sequence,binding signal
1,ATTAATTCACTACCTACTCTCCTTGCACCTAACACTCTTACGGAGTCACCTAGTGCAG,8860 fluorescence intensity (a.u.)
2,TGCTCCTTCTCTAATCTCTCCATCACCACCATACAATCTCCGGAGTCACCTAGTGCAG,8440 fluorescence intensity (a.u.)
3,CTAATGCGCGCCGCCCCGATCTCCCGATCCGGTCCGCGCGCGGAGTCACCTAGTGCAG,8190 fluorescence intensity (a.u.)
4,CCTCTCTCTCTCTCTCTCTCTCTCTCACACACACACACACCGGAGTCACCTAGTGCAG,9540 fluorescence intensity (a.u.)
5,CTCAAGTCTCACACTCTCACATGACCACCTGATCTACTGCCGGAGTCACCTAGTGCAG,8330 fluorescence intensity (a.u.)
6,GGCGAAGTACTTCTTGGTGTTGTTGCTGCCGCTGCCGGCGCGGAGTCACCTAGTGCAG,8120 fluorescence intensity (a.u.)
7,TTCACTTTTTTTTCTTCAAGTTCTTGTGGATCTATTTAATCGGAGTCACCTAGTGCAG,9670 fluorescence intensity (a.u.)
8,TCGGAGAACCTAATTTAACCTAGCTTTGTATATGTTGGGGCGGAGTCACCTAGTGCAG,9270 fluorescence intensity (a.u.)
9,CTGTCCGAACATAATACTGTCCTGTAACATTCTTATAAAACGGAGTCACCTAGTGCAG,9040 fluorescence intensity (a.u.)
10,CCCCATCCTCAGCACTCCCATCCTTGGGAAGCAAATCGGGCGGAGTCACCTAGTGCAG,8160 fluorescence intensity (a.u.)
11,AATAATCTCCTCGCTACACTCTCTCTGCGCTTGTCACAACCGGAGTCACCTAGTGCAG,10300 fluorescence intensity (a.u.)
12,ACACAAATTTTACACCCTATCACATCGAACACGTTTGAACCGGAGTCACCTAGTGCAG,8220 fluorescence intensity (a.u.)
13,TCGCGTCAACCCATTATCCTTCACCGCCACACTCGCTGACCGGAGTCACCTAGTGCAG,10800 fluorescence intensity (a.u.)
14,ATTGTGGGACAGAGGAAGTATATTATTGTTCACTTCTTTTCGGAGTCACCTAGTGCAG,9840 fluorescence intensity (a.u.)
15,ATTATTTTTTCTGTGGTTGAGATGTGGGCCTATGATTTTTCGGAGTCACCTAGTGCAG,10300 fluorescence intensity (a.u.)
16,TTGACTTTTTTAAACATGTTTAACTGTTCGTCTTATTAAACGGAGTCACCTAGTGCAG,8820 fluorescence intensity (a.u.)
17,TTCTCCGGATCGCTTCTTCCACCTCGCGCGCACTTCACCTCGGAGTCACCTAGTGCAG,9580 fluorescence intensity (a.u.)
18,AATTCTCTCTCTTGCTTTCTCTCTCCTCGCTTCCCGGGTTCGGAGTCACCTAGTGCAG,9980 fluorescence intensity (a.u.)
19,ATCCACACTGGCCTCTCGTCCTCACTCCATAACGGCCATGCGGAGTCACCTAGTGCAG,10200 fluorescence intensity (a.u.)
20,CTGCTATCTCCCTTACTGGCGTCCGCTGGGGAGGAGGAGGCGGAGTCACCTAGTGCAG,8480 fluorescence intensity (a.u.)
21,GATCGCCTCGCTCGCTTTCGCCTGTTGCTTCACGTTTCGGCGGAGTCACCTAGTGCAG,9220 fluorescence intensity (a.u.)
